No constants are given. Whether binding was seen depends on the method and setting. Binding can be weak; no strength is given. Where a sequence is shown, tags or fusion partners need not be part of it.
Assays:
Test in all cases: far-Western, overlay or dot blot; T7-tagged N-terminus of Xirp1 (residues 1-58) overlaid on blotted EEF-tagged EVH1 domains
[1] = target: EEF-tagged EVH1 domain of zebrafish VaspI (zebrafish)
[2] = target: EEF-tagged EVH1 domain of zebrafish Enah (zebrafish)
[3] = target: EEF-tagged EVH1 domain of zebrafish VaspII (zebrafish)

binding [1]: binds
binding [2]: binds
binding [3]: binds
B1: T7-tagged N-terminus of zebrafish Xirp1 (residues 1-58) containing proline-rich repeat1 (PR1) (domain or fragment, UniProt Q5PZ43 1-58)
chain: MAEVAKQKKATEAVCGDEDFPPPPPPLPRPQVLESLQKDLSQNFLPVPPPKETFSEIY
